Results deposited as PubChem BioAssay AID1259308 (NCATS, 2017)
Here is a random part of about 59,000 reagents. Of all reagents, about 1,510 (2.6%) are marked active. 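Calls use total luciferase alone and ignore viability, so some active siRNAs may act by altering cell number.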 The numbers tell different reagents against one gene apart. Further read-outs or replicates are left out here. No sequences are given here.

Assay: 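Candidate targets for better recombinant protein yield in mammalian cells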 (primary screen)
Cells: human HEK293 embryonic kidney cells stably expressing firefly luciferase (HEK-CMV-Luc2-Hygro)
Reagent: single siRNA against human genes, 0.8 pmol siRNA per well
Duration: 72 h
Measurement: 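Reporter luminescence and viable-cell signal on separate replicate plates, given as percent of non-targeting control and median/MAD z-scores, plus per-cell luciferase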
Reading the numbers: total luciferase, z-score and total luciferase, % of control: higher = more reporter protein produced
Active means: 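An siRNA counts as active if its total luciferase robust z-score exceeds 3; genes with two or more such siRNAs out of three were retested with fresh siRNAs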
Meaning of the calls: active = raised luciferase; inactive = no rise

For WNT10A (Wnt family member 10A) #1, what was measured?
total luciferase, z-score: 0.436; total luciferase, % of control: 90.6; call: inactive

What did the screen give for WNT10A (Wnt family member 10A) #2?
total luciferase, z-score: 1.17; total luciferase, % of control: 105; call: inactive

How did the screen score WNT10A (Wnt family member 10A) #3?
total luciferase, z-score: 1.74; total luciferase, % of control: 116; call: inactive

Which result is listed for MPI (mannose phosphate isomerase) #1?
total luciferase, z-score: 0.3; total luciferase, % of control: 87.9; call: inactive

What did the screen give for MPI (mannose phosphate isomerase) #2?
total luciferase, z-score: 3.13; total luciferase, % of control: 144; call: active

For MPI (mannose phosphate isomerase) #3, how do the results read?
total luciferase, z-score: 1.17; total luciferase, % of control: 105; call: inactive

With AHI1 (Abelson helper integration site 1) #1, how do the results read?
total luciferase, z-score: 0.583; total luciferase, % of control: 93.5; call: inactive

For AHI1 (Abelson helper integration site 1) #2, what does the deposit list?
total luciferase, z-score: 0.878; total luciferase, % of control: 99.3; call: inactive

Which result is listed for AHI1 (Abelson helper integration site 1) #3?
total luciferase, z-score: -0.945; total luciferase, % of control: 63.1; call: inactive

What is on record for OR51V1 (olfactory receptor family 51 subfamily V member 1) #1?
total luciferase, z-score: -0.0416; total luciferase, % of control: 81.1; call: inactive

How did the screen score OR51V1 (olfactory receptor family 51 subfamily V member 1) #2?
total luciferase, z-score: -0.342; total luciferase, % of control: 75.1; call: inactive

What did the screen give for OR51V1 (olfactory receptor family 51 subfamily V member 1) #3?
total luciferase, z-score: 0.539; total luciferase, % of control: 92.6; call: inactive

What did the screen give for HKDC1 (hexokinase domain containing 1) #1?
total luciferase, z-score: -1.08; total luciferase, % of control: 60.3; call: inactive

With HKDC1 (hexokinase domain containing 1) #2, what does the deposit list?
total luciferase, z-score: -0.485; total luciferase, % of control: 72.2; call: inactive

What did the screen give for HKDC1 (hexokinase domain containing 1) #3?
total luciferase, z-score: -1.49; total luciferase, % of control: 52.2; call: inactive

With LRFN1 #1, what was measured?
total luciferase, z-score: 2.51; total luciferase, % of control: 132; call: inactive

What is on record for LRFN1 #2?
total luciferase, z-score: 0.207; total luciferase, % of control: 86; call: inactive

How did the screen score LRFN1 #3?
total luciferase, z-score: -0.401; total luciferase, % of control: 73.9; call: inactive

With ZNF12 (zinc finger protein 12) #1, what does the deposit list?
total luciferase, z-score: -0.119; total luciferase, % of control: 79.5; call: inactive

What is on record for ZNF12 (zinc finger protein 12) #2?
total luciferase, z-score: 0.135; total luciferase, % of control: 84.6; call: inactive

For ZNF12 (zinc finger protein 12) #3, what was measured?
total luciferase, z-score: 0.363; total luciferase, % of control: 89.1; call: inactive

What did the screen give for SNX4 (sorting nexin 4) #1?
total luciferase, z-score: 1.07; total luciferase, % of control: 103; call: inactive

What did the screen give for SNX4 (sorting nexin 4) #2?
total luciferase, z-score: 0.819; total luciferase, % of control: 98.2; call: inactive

What is on record for SNX4 (sorting nexin 4) #3?
total luciferase, z-score: -0.087; total luciferase, % of control: 80.2; call: inactive

With ATF7 (activating transcription factor 7) #1, how do the results read?
total luciferase, z-score: 0.251; total luciferase, % of control: 86.9; call: inactive

What is on record for ATF7 (activating transcription factor 7) #2?
total luciferase, z-score: 2.14; total luciferase, % of control: 124; call: inactive

For ATF7 (activating transcription factor 7) #3, what was measured?
total luciferase, z-score: 0.656; total luciferase, % of control: 94.9; call: inactive

Which result is listed for OR1L6 (olfactory receptor family 1 subfamily L member 6) #1?
total luciferase, z-score: -0.0286; total luciferase, % of control: 81.3; call: inactive

What did the screen give for OR1L6 (olfactory receptor family 1 subfamily L member 6) #2?
total luciferase, z-score: -0.751; total luciferase, % of control: 66.9; call: inactive

What is on record for OR1L6 (olfactory receptor family 1 subfamily L member 6) #3?
total luciferase, z-score: 3.08; total luciferase, % of control: 143; call: active

How did the screen score PTBP2 (polypyrimidine tract binding protein 2) #1?
total luciferase, z-score: -0.187; total luciferase, % of control: 78.2; call: inactive

What did the screen give for PTBP2 (polypyrimidine tract binding protein 2) #2?
total luciferase, z-score: -0.705; total luciferase, % of control: 67.9; call: inactive

Which result is listed for PTBP2 (polypyrimidine tract binding protein 2) #3?
total luciferase, z-score: -0.211; total luciferase, % of control: 77.7; call: inactive

With KRABD4 (KRAB domain containing 4) #1, how do the results read?
total luciferase, z-score: 2.07; total luciferase, % of control: 123; call: inactive

What is on record for KRABD4 (KRAB domain containing 4) #2?
total luciferase, z-score: -0.443; total luciferase, % of control: 73.1; call: inactive

For KRABD4 (KRAB domain containing 4) #3, what was measured?
total luciferase, z-score: 1.46; total luciferase, % of control: 111; call: inactive

Which result is listed for GNL2 (G protein nucleolar 2) #1?
total luciferase, z-score: -2.04; total luciferase, % of control: 41.4; call: inactive

With GNL2 (G protein nucleolar 2) #2, how do the results read?
total luciferase, z-score: -1.3; total luciferase, % of control: 56; call: inactive

For GNL2 (G protein nucleolar 2) #3, what does the deposit list?
total luciferase, z-score: -1.28; total luciferase, % of control: 56.4; call: inactive

What is on record for ARHGEF12 (Rho guanine nucleotide exchange factor 12) #1?
total luciferase, z-score: -1.22; total luciferase, % of control: 57.7; call: inactive

With ARHGEF12 (Rho guanine nucleotide exchange factor 12) #2, how do the results read?
total luciferase, z-score: -0.837; total luciferase, % of control: 65.2; call: inactive

How did the screen score ARHGEF12 (Rho guanine nucleotide exchange factor 12) #3?
total luciferase, z-score: -0.606; total luciferase, % of control: 69.8; call: inactive
